In article PMC5357316 one finds binding data, which are given here for two substances.

The chains behind the UniProt entries cited, without tags or fusion partners.
UniProt Q13009: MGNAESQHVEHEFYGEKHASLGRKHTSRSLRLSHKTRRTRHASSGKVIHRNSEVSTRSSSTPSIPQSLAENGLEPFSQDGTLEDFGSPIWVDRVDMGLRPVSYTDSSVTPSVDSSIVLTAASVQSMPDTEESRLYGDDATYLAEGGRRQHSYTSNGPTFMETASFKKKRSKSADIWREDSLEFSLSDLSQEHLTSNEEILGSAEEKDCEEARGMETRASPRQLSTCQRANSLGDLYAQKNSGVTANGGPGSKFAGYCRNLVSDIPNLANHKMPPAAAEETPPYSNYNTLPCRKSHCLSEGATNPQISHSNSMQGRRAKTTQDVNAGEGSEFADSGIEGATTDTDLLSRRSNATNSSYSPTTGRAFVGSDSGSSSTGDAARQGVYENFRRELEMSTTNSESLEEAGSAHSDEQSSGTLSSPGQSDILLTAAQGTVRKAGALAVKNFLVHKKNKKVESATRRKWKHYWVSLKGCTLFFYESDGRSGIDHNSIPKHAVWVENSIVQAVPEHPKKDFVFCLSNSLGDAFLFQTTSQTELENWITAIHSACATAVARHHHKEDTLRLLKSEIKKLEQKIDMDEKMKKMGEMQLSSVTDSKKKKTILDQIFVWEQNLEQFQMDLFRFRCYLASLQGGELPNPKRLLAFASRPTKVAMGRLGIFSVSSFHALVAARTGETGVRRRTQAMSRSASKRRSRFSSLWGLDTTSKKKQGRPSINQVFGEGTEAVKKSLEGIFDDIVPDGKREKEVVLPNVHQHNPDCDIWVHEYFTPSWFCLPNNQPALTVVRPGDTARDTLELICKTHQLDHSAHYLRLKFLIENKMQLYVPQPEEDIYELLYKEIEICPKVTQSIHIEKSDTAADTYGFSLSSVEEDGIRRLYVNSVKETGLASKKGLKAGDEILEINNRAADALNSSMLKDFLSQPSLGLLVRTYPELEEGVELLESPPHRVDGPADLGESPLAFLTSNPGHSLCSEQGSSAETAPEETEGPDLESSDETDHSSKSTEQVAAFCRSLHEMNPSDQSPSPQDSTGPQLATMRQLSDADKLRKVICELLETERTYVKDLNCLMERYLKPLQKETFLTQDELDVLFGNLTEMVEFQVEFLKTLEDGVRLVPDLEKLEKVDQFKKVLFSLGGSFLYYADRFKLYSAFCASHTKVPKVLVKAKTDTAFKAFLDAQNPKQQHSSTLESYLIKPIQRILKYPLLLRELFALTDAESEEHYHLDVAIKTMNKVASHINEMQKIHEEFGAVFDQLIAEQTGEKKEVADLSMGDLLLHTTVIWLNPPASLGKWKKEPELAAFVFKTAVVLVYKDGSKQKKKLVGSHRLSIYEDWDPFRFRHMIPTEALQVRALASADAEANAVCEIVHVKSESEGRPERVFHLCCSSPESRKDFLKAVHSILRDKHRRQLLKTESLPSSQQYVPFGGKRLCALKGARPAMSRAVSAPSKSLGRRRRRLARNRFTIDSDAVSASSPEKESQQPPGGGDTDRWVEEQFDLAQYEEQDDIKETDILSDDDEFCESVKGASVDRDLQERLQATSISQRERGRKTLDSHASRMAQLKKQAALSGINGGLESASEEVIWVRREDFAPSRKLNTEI
UniProt Q60610: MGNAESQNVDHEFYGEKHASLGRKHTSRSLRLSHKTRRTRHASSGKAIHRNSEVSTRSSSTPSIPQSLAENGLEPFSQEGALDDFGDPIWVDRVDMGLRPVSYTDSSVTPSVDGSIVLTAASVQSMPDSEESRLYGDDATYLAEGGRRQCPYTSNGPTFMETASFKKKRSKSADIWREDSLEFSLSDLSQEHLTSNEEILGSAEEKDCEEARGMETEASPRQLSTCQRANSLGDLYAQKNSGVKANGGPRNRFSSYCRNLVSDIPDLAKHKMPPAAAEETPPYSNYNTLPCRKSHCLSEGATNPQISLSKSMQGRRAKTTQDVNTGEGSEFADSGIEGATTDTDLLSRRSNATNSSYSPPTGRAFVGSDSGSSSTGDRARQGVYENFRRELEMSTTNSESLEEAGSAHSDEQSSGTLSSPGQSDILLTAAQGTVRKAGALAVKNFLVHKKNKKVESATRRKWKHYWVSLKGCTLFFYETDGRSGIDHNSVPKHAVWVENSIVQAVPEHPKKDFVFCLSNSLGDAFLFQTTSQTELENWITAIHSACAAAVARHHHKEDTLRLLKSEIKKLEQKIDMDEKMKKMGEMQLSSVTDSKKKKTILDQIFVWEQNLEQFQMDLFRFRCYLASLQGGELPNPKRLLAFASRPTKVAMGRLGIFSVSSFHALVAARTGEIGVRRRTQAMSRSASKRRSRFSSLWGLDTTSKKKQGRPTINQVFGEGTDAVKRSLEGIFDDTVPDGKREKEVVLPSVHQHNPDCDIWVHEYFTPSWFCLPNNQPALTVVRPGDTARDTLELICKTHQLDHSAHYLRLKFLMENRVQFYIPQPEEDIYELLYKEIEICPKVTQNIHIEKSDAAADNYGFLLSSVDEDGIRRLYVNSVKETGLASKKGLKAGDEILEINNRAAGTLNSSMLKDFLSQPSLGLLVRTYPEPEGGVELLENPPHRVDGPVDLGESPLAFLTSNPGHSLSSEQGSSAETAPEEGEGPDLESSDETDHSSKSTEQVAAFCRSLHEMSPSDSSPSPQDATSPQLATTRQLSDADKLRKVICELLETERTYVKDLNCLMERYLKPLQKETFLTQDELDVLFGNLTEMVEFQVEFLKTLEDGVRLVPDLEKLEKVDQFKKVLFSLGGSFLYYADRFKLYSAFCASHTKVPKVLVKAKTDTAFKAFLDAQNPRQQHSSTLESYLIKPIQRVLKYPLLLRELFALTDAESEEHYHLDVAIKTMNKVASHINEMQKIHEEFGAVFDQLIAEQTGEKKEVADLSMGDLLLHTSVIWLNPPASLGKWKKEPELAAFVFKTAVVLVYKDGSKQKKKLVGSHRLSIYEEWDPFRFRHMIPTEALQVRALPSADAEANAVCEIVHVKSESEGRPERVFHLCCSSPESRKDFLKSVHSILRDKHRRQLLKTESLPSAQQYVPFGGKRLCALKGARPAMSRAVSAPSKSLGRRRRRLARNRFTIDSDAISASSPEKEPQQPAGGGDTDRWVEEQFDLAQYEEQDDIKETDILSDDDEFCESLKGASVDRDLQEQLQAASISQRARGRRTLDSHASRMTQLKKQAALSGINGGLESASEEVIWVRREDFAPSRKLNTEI

For test [1], the target named is T1, p140Cap over-expressed in SKBR3 cells (pBabe-puro retrovirus) (UniProt Q9QWI6).
T1 sequence: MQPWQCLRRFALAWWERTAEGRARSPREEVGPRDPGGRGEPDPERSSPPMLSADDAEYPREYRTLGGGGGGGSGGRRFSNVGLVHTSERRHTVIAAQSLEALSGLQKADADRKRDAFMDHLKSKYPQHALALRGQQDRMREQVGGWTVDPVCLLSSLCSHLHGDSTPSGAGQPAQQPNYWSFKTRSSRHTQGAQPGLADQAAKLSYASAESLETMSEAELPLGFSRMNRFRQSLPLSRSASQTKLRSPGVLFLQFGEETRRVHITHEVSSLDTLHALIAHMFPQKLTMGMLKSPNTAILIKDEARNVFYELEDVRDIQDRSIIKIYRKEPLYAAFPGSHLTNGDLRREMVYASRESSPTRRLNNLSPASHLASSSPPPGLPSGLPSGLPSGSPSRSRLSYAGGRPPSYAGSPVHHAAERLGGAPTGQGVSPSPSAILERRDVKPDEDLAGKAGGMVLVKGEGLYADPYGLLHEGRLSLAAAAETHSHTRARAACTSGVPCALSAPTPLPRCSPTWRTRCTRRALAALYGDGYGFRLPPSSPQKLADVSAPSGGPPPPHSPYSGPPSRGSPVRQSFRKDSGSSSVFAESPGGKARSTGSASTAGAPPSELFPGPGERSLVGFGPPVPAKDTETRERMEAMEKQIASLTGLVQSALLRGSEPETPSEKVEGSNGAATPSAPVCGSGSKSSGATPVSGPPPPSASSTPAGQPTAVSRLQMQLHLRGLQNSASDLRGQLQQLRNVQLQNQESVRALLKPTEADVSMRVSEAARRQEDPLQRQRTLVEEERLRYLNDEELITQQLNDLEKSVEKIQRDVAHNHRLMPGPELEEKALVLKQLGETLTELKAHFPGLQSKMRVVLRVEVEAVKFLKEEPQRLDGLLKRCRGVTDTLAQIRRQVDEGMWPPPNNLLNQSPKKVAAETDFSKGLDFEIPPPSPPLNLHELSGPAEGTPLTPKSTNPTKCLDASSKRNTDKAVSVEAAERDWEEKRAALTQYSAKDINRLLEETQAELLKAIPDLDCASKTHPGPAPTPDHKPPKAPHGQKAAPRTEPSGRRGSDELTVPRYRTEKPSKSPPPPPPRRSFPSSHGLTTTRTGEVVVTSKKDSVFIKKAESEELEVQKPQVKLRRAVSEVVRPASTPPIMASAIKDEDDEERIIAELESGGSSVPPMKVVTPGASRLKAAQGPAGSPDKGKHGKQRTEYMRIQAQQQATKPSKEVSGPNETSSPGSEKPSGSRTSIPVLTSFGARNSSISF
Description: co-IP; cell extracts in RIPA buffer; 1 mg of proteins immunoprecipitated with antibodies to p140Cap (legend: or to Tiam1) for 2 h at 4 °C with protein G-Sepharose beads; blotted for p140Cap and Tiam1; NeuT and p140 primary cancer cells, p140 over-expressing or mock SKBR3 cells.

Test [2] has as its target T2, p140Cap (mouse, MMTV-p140Cap transgene, Myc epitope at the carboxyterminal region) (mouse) (UniProt Q9QWI6).
T2 sequence: T1 sequence
The description is as above.

Results are given in words; binding and its absence hold for the method and conditions named. In cells and extracts the contact can be indirect. Some results given as binding are weak or reduced against the parent protein; the word gives no strength. For some assays here: Tags and fused reporters may be left off the sequences shown.

Regarding “Tiam1 (endogenous, human breast cancer cells) (from UniProt Q13009 1-1591)”, the binding result in test [1] was “binds”.

On to “Tiam1 (endogenous, mouse primary cancer cells) (from UniProt Q60610 1-1591)”, for which the binding entry in test [2] is listed as “binds”.
